The other results are listed elsewhere or left out.
What was measured:
Assay in all cases: log2 fold change, soluble protein after heating vs DMSO (PISA); higher = thermal stabilisation; K562 lysate, 10 uM; active = over 0.2 and 3.5 SD of the protein, either way, in both replicates (recomputed)
[1] = compound: CCn1cc(-c2ccnc3[nH]c(-c4cccc(CN(C)C)c4)cc23)c(-c2ccc(NC(=O)N(C)C)cc2)n1
How it was run: (§1)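 Following dounce homogenisation of K562 pellets in PBS pH 7.4 with 1 mM MgCl2, crude extract at 1 mg/mL protein was incubated for 30 min with 10 μM compound. Aliquots were then heated for 3 min over 48°C-58°C and pooled, NP-40 was added to 0.5% at 4°C, and soluble protein was recovered as the supernatant at 21,000xg for 90 min. Channel-sum-equalised TMTpro 16plex LC-MS/MS quantified this protein. Each value, from duplicates, is a log-two fold change in thermal stability relative to solvent controls.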

By UniProt entry, the sequences of proteins in these tests, tags left out. Where a name states a change or a piece, a line headed by the entry shows the natural chain unless it says otherwise.
UniProt Q9H9R9: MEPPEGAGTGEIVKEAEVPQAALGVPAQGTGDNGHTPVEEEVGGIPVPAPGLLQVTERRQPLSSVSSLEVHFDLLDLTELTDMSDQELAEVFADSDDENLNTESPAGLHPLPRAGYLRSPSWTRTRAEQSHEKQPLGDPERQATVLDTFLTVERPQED
UniProt Q15438: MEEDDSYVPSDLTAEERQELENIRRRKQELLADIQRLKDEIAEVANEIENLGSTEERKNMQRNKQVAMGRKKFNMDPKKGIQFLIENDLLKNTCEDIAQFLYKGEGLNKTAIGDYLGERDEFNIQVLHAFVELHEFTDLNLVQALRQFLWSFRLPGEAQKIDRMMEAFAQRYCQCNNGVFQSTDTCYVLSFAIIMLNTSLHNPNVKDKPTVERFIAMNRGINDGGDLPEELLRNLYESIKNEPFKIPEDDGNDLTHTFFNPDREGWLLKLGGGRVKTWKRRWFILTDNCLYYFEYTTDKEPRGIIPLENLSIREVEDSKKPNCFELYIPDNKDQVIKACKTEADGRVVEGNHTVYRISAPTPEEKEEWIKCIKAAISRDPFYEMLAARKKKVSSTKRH
UniProt Q8WUY9, whole entry, looked up: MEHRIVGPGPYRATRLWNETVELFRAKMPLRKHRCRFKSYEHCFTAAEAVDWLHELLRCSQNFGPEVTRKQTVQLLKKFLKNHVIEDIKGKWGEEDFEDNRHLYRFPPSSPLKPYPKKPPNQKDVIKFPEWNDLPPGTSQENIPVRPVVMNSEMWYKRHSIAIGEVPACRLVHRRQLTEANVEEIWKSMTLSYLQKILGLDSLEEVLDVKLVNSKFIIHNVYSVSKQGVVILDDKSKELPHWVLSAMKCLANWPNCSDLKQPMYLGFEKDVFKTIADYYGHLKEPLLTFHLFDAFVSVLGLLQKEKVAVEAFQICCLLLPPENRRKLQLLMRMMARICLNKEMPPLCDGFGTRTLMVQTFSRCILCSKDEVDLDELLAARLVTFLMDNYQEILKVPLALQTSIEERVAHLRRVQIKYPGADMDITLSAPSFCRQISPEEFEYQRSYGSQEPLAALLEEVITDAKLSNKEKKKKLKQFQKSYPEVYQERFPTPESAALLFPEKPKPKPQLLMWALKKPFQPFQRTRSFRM
UniProt Q05D60: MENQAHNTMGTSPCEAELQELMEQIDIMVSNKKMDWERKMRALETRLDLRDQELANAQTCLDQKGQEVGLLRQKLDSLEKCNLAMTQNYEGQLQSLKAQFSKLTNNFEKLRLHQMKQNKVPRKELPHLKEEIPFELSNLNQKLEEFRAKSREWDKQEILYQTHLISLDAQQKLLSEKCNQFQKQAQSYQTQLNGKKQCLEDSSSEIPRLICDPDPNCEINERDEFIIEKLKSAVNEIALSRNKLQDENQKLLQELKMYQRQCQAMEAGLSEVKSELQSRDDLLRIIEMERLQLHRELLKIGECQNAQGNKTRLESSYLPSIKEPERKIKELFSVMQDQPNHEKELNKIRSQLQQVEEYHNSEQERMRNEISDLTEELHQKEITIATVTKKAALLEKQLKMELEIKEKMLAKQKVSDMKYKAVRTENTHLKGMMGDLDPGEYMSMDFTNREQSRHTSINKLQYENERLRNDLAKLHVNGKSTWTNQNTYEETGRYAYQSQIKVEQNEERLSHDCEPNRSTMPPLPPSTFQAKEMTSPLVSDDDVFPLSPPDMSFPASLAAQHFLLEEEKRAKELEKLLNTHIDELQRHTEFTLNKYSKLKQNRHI
UniProt Q96QD5: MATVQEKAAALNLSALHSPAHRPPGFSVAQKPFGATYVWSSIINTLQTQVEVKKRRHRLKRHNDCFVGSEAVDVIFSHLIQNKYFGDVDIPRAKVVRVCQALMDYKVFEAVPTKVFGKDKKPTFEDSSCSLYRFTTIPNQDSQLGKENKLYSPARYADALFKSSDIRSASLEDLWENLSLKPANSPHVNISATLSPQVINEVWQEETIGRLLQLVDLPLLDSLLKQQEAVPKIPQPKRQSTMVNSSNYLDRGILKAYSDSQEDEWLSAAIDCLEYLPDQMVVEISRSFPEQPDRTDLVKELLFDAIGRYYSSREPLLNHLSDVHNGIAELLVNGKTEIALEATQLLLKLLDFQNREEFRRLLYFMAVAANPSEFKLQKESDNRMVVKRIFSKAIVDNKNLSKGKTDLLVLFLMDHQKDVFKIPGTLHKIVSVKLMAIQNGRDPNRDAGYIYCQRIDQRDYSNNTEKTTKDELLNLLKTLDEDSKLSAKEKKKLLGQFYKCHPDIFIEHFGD
UniProt O75140: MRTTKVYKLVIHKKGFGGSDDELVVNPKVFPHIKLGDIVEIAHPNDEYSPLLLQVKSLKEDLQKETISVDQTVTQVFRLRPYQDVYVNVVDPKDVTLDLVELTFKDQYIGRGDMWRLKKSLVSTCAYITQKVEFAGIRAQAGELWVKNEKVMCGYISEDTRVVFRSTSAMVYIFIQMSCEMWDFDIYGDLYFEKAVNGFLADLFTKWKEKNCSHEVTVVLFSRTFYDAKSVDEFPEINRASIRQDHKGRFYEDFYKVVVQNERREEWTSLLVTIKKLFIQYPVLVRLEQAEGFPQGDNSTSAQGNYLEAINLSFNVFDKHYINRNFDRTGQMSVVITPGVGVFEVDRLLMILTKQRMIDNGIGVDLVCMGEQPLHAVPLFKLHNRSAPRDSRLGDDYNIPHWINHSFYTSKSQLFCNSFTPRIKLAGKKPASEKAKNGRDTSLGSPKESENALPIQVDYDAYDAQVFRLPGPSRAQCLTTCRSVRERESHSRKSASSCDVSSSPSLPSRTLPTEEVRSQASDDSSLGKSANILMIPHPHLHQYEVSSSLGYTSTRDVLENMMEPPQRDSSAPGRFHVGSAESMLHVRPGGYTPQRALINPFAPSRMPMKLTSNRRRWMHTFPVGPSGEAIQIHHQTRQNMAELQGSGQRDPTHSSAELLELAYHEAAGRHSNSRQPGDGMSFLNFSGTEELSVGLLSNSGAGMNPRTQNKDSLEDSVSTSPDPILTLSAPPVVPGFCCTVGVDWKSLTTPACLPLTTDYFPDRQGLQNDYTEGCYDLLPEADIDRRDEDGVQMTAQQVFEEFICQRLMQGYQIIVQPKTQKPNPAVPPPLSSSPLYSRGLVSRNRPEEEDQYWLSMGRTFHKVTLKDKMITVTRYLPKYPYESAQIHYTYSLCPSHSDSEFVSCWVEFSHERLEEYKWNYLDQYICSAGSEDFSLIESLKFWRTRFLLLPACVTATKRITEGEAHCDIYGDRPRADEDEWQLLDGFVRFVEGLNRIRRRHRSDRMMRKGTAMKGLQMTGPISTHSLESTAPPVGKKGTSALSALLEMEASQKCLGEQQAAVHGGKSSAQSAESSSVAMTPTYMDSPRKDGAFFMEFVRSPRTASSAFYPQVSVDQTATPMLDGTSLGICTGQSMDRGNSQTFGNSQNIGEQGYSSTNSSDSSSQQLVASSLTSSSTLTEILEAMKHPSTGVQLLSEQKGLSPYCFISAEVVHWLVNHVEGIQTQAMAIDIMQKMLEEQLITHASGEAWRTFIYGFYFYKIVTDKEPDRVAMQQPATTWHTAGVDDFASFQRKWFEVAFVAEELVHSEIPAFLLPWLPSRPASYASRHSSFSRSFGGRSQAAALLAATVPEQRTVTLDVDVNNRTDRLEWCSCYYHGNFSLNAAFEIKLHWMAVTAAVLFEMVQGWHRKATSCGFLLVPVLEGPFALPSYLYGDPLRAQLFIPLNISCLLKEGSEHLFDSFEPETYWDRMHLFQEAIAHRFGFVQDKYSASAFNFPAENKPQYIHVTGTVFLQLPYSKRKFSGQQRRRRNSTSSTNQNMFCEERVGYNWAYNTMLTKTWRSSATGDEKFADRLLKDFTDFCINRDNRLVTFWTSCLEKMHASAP
UniProt Q6IQ26: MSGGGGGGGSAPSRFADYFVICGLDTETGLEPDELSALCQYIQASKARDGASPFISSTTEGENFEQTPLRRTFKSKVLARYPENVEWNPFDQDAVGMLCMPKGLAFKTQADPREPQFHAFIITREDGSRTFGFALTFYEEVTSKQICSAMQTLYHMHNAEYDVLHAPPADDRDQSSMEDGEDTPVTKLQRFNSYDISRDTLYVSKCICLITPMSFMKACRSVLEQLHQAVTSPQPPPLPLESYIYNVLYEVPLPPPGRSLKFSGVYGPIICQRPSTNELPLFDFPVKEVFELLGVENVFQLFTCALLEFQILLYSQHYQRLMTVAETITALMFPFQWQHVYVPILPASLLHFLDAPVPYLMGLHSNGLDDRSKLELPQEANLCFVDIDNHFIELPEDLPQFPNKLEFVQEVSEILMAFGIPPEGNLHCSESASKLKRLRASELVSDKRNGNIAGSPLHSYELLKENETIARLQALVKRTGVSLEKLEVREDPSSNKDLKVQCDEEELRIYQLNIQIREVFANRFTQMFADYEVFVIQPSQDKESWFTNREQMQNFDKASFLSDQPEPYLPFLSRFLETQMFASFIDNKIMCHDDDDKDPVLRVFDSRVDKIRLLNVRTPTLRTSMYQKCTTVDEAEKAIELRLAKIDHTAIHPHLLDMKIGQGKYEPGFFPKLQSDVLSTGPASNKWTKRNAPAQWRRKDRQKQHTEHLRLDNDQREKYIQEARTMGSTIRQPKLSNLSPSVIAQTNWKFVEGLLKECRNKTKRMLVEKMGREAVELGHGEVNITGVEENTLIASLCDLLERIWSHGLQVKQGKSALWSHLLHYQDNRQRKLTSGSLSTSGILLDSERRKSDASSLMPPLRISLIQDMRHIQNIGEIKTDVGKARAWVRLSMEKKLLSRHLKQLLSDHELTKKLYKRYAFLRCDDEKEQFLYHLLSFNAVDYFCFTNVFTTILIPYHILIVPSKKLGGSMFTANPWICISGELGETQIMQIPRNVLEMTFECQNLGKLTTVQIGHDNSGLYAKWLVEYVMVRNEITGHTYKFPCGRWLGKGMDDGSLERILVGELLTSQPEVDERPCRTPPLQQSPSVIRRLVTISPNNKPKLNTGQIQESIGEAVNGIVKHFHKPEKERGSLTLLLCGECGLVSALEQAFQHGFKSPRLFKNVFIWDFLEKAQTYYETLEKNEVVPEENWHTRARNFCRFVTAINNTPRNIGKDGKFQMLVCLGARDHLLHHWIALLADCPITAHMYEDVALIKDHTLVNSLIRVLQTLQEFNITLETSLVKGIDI
UniProt Q8N8A6: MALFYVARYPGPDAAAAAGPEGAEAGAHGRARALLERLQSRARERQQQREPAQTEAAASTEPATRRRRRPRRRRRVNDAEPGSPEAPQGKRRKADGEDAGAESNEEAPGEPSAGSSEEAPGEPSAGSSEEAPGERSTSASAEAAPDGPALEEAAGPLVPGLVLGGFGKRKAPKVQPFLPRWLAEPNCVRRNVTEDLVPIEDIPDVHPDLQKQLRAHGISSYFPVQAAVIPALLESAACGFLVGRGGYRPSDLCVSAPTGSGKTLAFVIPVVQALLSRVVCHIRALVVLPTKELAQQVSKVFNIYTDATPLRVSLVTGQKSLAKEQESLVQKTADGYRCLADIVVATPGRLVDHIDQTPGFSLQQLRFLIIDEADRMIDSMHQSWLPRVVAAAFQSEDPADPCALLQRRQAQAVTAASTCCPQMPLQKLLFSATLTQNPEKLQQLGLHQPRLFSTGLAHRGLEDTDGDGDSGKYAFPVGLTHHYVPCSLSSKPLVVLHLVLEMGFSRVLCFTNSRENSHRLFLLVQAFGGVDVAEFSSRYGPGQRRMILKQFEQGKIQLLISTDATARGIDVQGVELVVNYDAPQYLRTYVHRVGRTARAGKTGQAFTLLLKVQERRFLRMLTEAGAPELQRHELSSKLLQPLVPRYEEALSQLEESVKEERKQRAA
UniProt Q6ZN54: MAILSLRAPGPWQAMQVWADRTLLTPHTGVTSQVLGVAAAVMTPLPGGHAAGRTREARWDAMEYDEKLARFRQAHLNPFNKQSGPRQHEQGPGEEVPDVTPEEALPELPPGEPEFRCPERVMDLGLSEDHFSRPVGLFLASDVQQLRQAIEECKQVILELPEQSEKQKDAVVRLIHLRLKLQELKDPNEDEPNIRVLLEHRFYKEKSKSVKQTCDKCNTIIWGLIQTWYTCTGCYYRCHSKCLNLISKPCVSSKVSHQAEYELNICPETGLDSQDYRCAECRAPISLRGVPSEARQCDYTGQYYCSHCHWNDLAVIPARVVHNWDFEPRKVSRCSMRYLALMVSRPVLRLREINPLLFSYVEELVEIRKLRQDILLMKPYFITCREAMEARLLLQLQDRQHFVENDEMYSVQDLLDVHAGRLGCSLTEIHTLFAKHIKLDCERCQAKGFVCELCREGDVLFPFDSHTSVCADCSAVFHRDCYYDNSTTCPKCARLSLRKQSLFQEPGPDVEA
UniProt Q8WVC6: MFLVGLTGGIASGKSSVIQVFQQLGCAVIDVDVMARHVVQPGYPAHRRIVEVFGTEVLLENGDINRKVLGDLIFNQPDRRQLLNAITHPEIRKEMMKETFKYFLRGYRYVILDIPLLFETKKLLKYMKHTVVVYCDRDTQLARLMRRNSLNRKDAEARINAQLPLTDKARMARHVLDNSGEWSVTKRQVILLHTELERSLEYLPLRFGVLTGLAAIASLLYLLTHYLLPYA

[2] = compound: CN1CCC(CNc2ccc3ncc(-c4cccc(OC(F)(F)F)c4)n3n2)CC1
How it was run: as §1

[3] = compound: CCn1c(C(=O)N(C2CC2)C2CC2)cc2c3c(ncn3C)c(Nc3cc(C)n(C)n3)nc21
How it was run: as §1

saracatinib = compound: CN1CCN(CCOc2cc(OC3CCOCC3)c3c(Nc4c(Cl)ccc5c4OCO5)ncnc3c2)CC1 [saracatinib]
How it was run: as §1

[4] = compound: CCCS(=O)(=O)Nc1ccc(F)c(C(=O)c2c[nH]c3ncc(Cl)cc23)c1F
How it was run: as §1

volasertib = compound: CC[C@@H]1C(=O)N(C)c2cnc(Nc3ccc(C(=O)N[C@H]4CC[C@H](N5CCN(CC6CC6)CC5)CC4)cc3OC)nc2N1C(C)C [volasertib]
How it was run: as §1

sotrastaurin = compound: CN1CCN(c2nc(C3=C(c4c[nH]c5ccccc45)C(=O)NC3=O)c3ccccc3n2)CC1 [sotrastaurin]
How it was run: as §1

[5] = compound: CC[C@@H]1C(=O)N(C)c2cnc(Nc3ccc(C(=O)NC4CCN(C)CC4)cc3OC)nc2N1C1CCCC1
How it was run: as §1

barasertib = compound: CCN(CCCOc1ccc2c(Nc3cc(CC(=O)Nc4cccc(F)c4)[nH]n3)ncnc2c1)CCOP(=O)(O)O [barasertib]
How it was run: as §1

vemurafenib = compound: CCCS(=O)(=O)Nc1ccc(F)c(C(=O)c2c[nH]c3ncc(-c4ccc(Cl)cc4)cc23)c1F [vemurafenib]
How it was run: as §1

Measured: log2 fold change

DDX39B (UniProt F6R6M7)
inactive: [1] -0.125 | [2] 0.03

CYP4F11 (UniProt Q9HBI6)
inactive: [3] -0.267 | [1] -0.018 | [2] 0.271 | saracatinib 1.07

DET1 isoform 2 (UniProt Q7L5Y6)
inactive: [4] 0.003 | volasertib 0.118 | [3] -0.202 | sotrastaurin -0.031

DBNDD1 isoform 3 (UniProt Q9H9R9)
inactive: [4] 0.056 | [5] -0.084 | volasertib -0.044 | [3] 0.002 | [1] 0.076 | [2] 0.081 | saracatinib 0.106 | sotrastaurin -0.029

DDX28 (UniProt Q9NUL7)
inactive: barasertib 0.109 | [3] 0.089 | [1] -0.085 | [2] -0.018 | saracatinib -0.045 | sotrastaurin 0.083

DCBLD2 isoform 2 (UniProt Q96PD2)
inactive: [4] 0.023 | volasertib -0.11 | [3] -0.076 | [1] 0.044 | [2] 0.019 | saracatinib -0.038

CYP4V2 (UniProt Q6ZWL3)
inactive: [4] -0.021 | barasertib -0.021 | volasertib 0.05 | [3] -0.12 | saracatinib -0.076 | sotrastaurin -0.17

DCAF5 (UniProt Q96JK2)
inactive: vemurafenib -0.127 | saracatinib -0.144 | sotrastaurin 0.043

CYREN isoform 4 (UniProt Q9BWK5)
inactive: [3] 0.07 | [1] 0.058 | [2] -0.09 | saracatinib -0.08 | sotrastaurin 0.007

DBNL (UniProt Q9UJU6)
inactive: [4] 0.015 | barasertib 0.093 | volasertib -0.004 | [1] 0.067 | [2] 0.026 | saracatinib 0.283

DCLRE1C (UniProt Q96SD1)
inactive: [4] -0.106 | volasertib -0.247 | [3] -0.024 | [1] -0.045 | [2] 0.079 | sotrastaurin -0.087

DDX39B (UniProt H0Y400)
inactive: [4] -0.048 | volasertib 0.009

DENND1C (UniProt Q8IV53)
inactive: vemurafenib -0.008 | barasertib -0.099 | [3] -0.072 | saracatinib 0 | sotrastaurin -0.048

2 neighbouring entries already listed, for reference:
CYP4V2 (UniProt Q6ZWL3)
inactive: [4] -0.021 | barasertib -0.021 | volasertib 0.05 | [3] -0.12 | saracatinib -0.076 | sotrastaurin -0.17

DCAF5 (UniProt Q96JK2)
inactive: vemurafenib -0.127 | saracatinib -0.144 | sotrastaurin 0.043

More entries:

CYTH1 (UniProt Q15438)
inactive: [4] -0.008 | barasertib -0.052 | [5] 0.011 | volasertib -0.029 | [3] -0.087 | [1] 0.018 | [2] 0.073 | sotrastaurin -0.052

DEPDC1B (UniProt Q8WUY9)
inactive: vemurafenib 0.104 | [5] -0.306 | [3] -0.109 | saracatinib -0.174

DCAF17 (UniProt Q5H9S7)
inactive: [4] 0.142 | volasertib -0.04

DCAF4 (UniProt Q8WV16)
inactive: [4] -0.319 | barasertib 0.032 | [5] -0.101 | volasertib 0.207 | [1] -0.103 | [2] 0.108 | saracatinib 0.028 | sotrastaurin -0.023

DDIT4 (UniProt Q9NX09)
inactive: vemurafenib 0.067 | [5] 0.161 | sotrastaurin -0.005

DCUN1D3 (UniProt Q8IWE4)
inactive: barasertib -0.02 | [5] -0.14 | [1] 0.217 | [2] -0.156 | saracatinib 0.034

DEUP1 (UniProt Q05D60)
inactive: [4] 0 | barasertib 0.16 | [5] 0.078 | volasertib 0.006 | [3] -0.581 | saracatinib 0.041 | sotrastaurin 0.215

DEPDC7 (UniProt Q96QD5)
inactive: [5] -0.127 | [1] 0.084 | [2] -0.188

CYTH2 (UniProt Q99418)
inactive: [4] -0.064 | barasertib 0.155 | [5] 0.028 | volasertib -0.017 | [3] -0.074 | [1] -0.044 | [2] -0.051 | saracatinib 0.047

DDX60L (UniProt Q5H9U9)
inactive: [4] 0.024 | volasertib 0.311 | saracatinib 0.014

DDIT3 isoform 2 (UniProt P35638)
inactive: vemurafenib -0.012 | [5] 0.11 | sotrastaurin 0.004

DEPDC5 (UniProt O75140)
inactive: vemurafenib -0.066 | barasertib 0.016 | [1] -0.095 | [2] 0.038

DESI2 (UniProt Q9BSY9)
inactive: vemurafenib 0.064 | [5] 0.089 | [1] 0.116 | [2] -0.113

DENND5B isoform 2 (UniProt Q6ZUT9)
inactive: barasertib 0.116 | [3] -0.089 | [1] -0.167 | [2] 0.148 | saracatinib -0.121

DDX11 (UniProt Q96FC9)
inactive: vemurafenib -0.097 | [3] -0.069 | [1] -0.074 | [2] 0.009 | saracatinib -0.024 | sotrastaurin 0.077

DEAF1 (UniProt O75398)
inactive: [5] -0.056 | saracatinib 0.138

DENND5A (UniProt Q6IQ26)
inactive: saracatinib 0.032 | sotrastaurin -0.05

DDX51 (UniProt Q8N8A6)
inactive: [4] -0.019 | volasertib -0.013 | [3] -0.003 | [1] -0.106 | [2] -0.025 | saracatinib -0.024 | sotrastaurin 0.052

DCBLD1 (UniProt Q8N8Z6)
inactive: [4] 0.068 | [5] 0.245 | volasertib 0.146 | [1] -0.008 | [2] 0.06 | saracatinib 0.047

DDB1 isoform 2 (UniProt Q16531)
inactive: [4] -0.103 | volasertib 0 | [1] -0.527 | [2] 0.255

DCP1B (UniProt Q8IZD4)
inactive: vemurafenib 0 | barasertib -0.078 | [5] 0.132 | [1] -0.062 | [2] -0.048 | saracatinib 0.202 | sotrastaurin -0.09

DDR1 isoform 5 (UniProt Q08345)
inactive: barasertib 0.169 | [5] 0.064 | [3] 0.013 | [1] 0.043 | saracatinib -0.142 | sotrastaurin -0.019
active: [2] -0.479

DEF8 (UniProt Q6ZN54)
inactive: vemurafenib 0.03 | barasertib -0.018 | [5] -0.259 | saracatinib -0.044 | sotrastaurin 0.13

DDX19A isoform 2 (UniProt Q9NUU7)
inactive: sotrastaurin -0.09

CYTH3 (UniProt O43739)
inactive: [4] 0.016 | volasertib 0.012 | [3] -0.114 | [1] -0.026 | [2] -0.014

DCUN1D1 (UniProt C9JVE2)
inactive: [4] -0.057 | barasertib 0.141 | [5] 0.297 | volasertib 0.004 | [3] -0.405 | saracatinib -0.087 | sotrastaurin -0.006

DCAKD (UniProt Q8WVC6)
inactive: vemurafenib 0.06 | [3] -0.036

— the supplement of paper PMC10849652
